{
  "sequences": {"note": "Protein sequences, listed by entry. Tags and fused reporters are not part of them. Lines headed by an entry give the natural chain unless they say otherwise; changes in a name come on top.", "UniProt P41212": "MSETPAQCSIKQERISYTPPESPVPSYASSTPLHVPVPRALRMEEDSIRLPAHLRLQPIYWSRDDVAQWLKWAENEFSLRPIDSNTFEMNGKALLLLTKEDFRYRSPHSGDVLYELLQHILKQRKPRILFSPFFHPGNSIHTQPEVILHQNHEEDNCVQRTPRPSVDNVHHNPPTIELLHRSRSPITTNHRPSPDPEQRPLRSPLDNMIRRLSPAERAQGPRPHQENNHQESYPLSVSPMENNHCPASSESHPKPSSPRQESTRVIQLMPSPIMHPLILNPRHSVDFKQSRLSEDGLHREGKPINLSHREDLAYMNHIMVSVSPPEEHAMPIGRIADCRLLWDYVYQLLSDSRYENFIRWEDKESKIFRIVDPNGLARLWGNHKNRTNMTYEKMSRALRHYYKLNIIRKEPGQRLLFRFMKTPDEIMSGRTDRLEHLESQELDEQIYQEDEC"},
  "source": "paper PMC7862700",
  "note": "The entries are a selection whose mix differs from that of the whole data set. At the low end of the ranking the order means little.",
  "data": [
    {"target": "ETV6 (UniProt P41212)", "assay": "DAPPL (digital affinity profiling via proximity ligation, sequencing)", "settings": "10 mM Tris-HCl pH 7.5, 50 mM NaCl, 1 mM DTT, 4% glycerol, room temperature, 30 min; GST-TFs on glutathione beads, 16-mer random dsDNA library, 0.1% …; high values mean tight binding; double strand, one strand shown; scale: fold enrichment (6-mer frequency, TF over GST control)", "values": [
      {"sequence": "ATAAGA", "binding signal": 1.07},
      {"sequence": "TGAATA", "binding signal": 1.08},
      {"sequence": "TGTGAT", "binding signal": 0.956},
      {"sequence": "GTCTCC", "binding signal": 1.51},
      {"sequence": "TGGCTG", "binding signal": 1.02},
      {"sequence": "CTTAAC", "binding signal": 1.29},
      {"sequence": "ACTGAC", "binding signal": 1.19},
      {"sequence": "CTGATT", "binding signal": 1.17},
      {"sequence": "GTATAC", "binding signal": 1.19},
      {"sequence": "TTAAGG", "binding signal": 1.06},
      {"sequence": "CAATTT", "binding signal": 1.32},
      {"sequence": "CCAAGC", "binding signal": 0.943},
      {"sequence": "CCTGCC", "binding signal": 1.36},
      {"sequence": "TGATCA", "binding signal": 0.949},
      {"sequence": "AGTGTC", "binding signal": 1.01},
      {"sequence": "TGACAT", "binding signal": 1.37},
      {"sequence": "TACAAC", "binding signal": 1.11},
      {"sequence": "CGAACG", "binding signal": 0.981},
      {"sequence": "CTAGCA", "binding signal": 1.18},
      {"sequence": "CGTTTC", "binding signal": 1.95},
      {"sequence": "GGAAAT", "binding signal": 3.32},
      {"sequence": "TGCGTT", "binding signal": 0.969},
      {"sequence": "CTAACC", "binding signal": 0.988},
      {"sequence": "AGATCT", "binding signal": 0.882},
      {"sequence": "GTTTGC", "binding signal": 1.02},
      {"sequence": "CATCCT", "binding signal": 1.65},
      {"sequence": "GCCTAA", "binding signal": 1.13},
      {"sequence": "ATTGAG", "binding signal": 0.979},
      {"sequence": "CTCCCA", "binding signal": 1.46},
      {"sequence": "TGACGG", "binding signal": 0.964},
      {"sequence": "ATTATC", "binding signal": 1.29},
      {"sequence": "TATATG", "binding signal": 1.34},
      {"sequence": "ACTTAG", "binding signal": 1.14},
      {"sequence": "CTAGCC", "binding signal": 0.921},
      {"sequence": "CCACTA", "binding signal": 1.07},
      {"sequence": "TCGCTG", "binding signal": 0.986},
      {"sequence": "GACTTT", "binding signal": 1.14},
      {"sequence": "TTGCAA", "binding signal": 1.16},
      {"sequence": "TAGATG", "binding signal": 1.24}
    ]}
  ]
}
